Assay [1] addresses T1, Dishevelled-3 (DVL3) (human (endogenous in CCA cell lines)) (UniProt Q92997).
T1 sequence: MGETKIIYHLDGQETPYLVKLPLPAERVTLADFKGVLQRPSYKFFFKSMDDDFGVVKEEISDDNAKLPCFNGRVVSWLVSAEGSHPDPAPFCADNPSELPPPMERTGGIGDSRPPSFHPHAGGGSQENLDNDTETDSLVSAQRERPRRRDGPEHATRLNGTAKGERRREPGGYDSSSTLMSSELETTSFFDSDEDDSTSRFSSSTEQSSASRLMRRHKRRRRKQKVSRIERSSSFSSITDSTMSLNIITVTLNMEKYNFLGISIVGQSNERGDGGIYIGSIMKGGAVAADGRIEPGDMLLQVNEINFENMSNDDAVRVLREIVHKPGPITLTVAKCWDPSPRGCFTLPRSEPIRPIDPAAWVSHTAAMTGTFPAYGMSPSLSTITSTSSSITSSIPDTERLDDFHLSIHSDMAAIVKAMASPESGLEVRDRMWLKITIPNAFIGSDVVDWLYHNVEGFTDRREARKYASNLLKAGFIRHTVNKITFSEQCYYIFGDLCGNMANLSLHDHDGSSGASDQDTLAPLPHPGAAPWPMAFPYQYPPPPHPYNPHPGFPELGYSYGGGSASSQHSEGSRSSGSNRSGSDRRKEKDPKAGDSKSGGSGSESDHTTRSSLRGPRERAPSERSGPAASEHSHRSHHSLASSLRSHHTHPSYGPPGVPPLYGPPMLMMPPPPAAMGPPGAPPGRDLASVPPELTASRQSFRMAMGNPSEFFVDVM
The assay is described as follows: co-IP; lysate of CCA cells; antibody on Protein A + G magnetic beads, mixed with lysate at room temperature for 120 min; blot.

Chains of the proteins cited; added tags and fusions are not shown.
UniProt Q8IZT6: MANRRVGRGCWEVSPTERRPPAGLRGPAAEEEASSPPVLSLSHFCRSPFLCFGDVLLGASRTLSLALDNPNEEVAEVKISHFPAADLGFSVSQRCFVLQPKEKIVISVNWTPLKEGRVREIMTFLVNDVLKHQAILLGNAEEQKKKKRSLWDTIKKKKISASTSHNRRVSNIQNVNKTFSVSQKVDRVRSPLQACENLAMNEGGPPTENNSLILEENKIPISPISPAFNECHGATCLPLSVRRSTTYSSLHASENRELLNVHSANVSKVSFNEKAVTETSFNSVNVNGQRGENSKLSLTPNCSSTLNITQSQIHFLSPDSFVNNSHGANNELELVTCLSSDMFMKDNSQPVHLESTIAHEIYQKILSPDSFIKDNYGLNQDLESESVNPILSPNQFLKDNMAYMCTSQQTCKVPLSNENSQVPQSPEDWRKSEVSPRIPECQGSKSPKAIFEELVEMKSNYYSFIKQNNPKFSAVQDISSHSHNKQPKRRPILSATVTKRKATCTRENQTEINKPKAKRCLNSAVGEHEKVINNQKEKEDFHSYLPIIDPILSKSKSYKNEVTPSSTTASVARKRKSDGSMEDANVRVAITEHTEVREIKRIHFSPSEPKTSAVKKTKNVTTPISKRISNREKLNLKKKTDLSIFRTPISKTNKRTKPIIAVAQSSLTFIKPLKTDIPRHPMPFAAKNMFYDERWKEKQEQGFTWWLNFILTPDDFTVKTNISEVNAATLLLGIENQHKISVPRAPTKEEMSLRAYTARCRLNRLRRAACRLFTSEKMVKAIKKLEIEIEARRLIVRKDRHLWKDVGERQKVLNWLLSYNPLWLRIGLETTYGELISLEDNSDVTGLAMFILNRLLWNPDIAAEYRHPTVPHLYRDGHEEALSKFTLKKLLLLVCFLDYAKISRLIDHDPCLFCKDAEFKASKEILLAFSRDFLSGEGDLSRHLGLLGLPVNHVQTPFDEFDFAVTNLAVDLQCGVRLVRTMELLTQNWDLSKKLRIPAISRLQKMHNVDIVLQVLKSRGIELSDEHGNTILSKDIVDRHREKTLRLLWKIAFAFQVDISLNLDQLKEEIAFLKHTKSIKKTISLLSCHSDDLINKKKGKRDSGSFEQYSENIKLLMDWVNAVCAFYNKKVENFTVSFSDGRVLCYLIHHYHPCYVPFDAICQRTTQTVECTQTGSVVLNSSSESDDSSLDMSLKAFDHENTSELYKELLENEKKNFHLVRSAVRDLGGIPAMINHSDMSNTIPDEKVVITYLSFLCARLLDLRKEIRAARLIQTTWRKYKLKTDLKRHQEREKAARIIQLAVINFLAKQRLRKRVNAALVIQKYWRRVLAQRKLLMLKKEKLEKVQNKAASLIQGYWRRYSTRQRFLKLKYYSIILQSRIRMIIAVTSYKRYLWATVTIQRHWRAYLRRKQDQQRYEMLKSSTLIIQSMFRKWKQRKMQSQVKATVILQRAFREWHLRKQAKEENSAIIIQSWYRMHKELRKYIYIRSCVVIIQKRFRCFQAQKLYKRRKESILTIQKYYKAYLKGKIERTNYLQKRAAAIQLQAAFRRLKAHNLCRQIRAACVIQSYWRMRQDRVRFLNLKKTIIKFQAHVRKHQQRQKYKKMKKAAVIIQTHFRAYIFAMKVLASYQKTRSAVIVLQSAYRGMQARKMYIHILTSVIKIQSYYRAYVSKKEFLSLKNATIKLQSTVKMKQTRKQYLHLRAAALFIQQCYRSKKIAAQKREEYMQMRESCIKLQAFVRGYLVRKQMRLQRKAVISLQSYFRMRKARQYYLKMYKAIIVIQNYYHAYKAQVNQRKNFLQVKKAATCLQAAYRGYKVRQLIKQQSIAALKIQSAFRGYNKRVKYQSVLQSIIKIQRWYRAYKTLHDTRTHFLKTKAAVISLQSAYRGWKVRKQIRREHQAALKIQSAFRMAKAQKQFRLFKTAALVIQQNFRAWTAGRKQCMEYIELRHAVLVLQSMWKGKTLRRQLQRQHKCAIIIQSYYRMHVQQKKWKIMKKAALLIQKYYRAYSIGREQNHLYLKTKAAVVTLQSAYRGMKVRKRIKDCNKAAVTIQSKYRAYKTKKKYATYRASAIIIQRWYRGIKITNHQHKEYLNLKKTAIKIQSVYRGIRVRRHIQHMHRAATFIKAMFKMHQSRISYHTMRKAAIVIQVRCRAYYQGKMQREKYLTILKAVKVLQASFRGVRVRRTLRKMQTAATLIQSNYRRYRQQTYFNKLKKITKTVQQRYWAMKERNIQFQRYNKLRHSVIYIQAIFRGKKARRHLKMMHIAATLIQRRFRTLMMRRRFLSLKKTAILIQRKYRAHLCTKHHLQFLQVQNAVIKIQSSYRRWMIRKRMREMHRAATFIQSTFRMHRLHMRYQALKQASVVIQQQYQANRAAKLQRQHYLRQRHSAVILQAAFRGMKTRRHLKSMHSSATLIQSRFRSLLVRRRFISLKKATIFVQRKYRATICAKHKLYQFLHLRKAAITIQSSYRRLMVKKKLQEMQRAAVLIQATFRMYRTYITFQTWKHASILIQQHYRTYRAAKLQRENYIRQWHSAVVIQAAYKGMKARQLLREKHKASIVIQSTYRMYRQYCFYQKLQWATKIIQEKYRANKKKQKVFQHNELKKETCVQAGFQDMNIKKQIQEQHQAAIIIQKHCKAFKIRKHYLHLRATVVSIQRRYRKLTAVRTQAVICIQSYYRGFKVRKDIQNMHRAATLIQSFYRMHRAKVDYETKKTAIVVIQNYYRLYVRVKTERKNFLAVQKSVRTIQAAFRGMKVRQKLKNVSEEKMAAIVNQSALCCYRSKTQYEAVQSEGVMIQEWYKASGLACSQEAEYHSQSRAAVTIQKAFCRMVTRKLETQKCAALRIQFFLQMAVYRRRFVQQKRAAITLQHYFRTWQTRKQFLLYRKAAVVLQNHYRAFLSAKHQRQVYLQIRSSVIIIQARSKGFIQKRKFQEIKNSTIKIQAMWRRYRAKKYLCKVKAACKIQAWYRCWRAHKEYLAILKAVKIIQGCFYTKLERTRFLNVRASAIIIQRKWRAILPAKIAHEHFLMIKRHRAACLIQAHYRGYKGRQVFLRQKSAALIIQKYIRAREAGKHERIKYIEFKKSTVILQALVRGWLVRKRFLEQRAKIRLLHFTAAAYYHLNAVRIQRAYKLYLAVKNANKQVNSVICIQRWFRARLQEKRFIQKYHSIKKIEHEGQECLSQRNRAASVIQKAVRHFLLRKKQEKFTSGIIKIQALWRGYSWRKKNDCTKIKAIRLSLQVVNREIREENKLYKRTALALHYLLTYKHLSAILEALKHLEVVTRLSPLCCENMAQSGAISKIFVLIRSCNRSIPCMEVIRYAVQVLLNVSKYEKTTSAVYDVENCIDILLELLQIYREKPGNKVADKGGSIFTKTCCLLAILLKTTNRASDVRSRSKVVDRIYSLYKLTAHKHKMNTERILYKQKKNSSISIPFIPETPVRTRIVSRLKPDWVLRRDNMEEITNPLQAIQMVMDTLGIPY
UniProt P98175: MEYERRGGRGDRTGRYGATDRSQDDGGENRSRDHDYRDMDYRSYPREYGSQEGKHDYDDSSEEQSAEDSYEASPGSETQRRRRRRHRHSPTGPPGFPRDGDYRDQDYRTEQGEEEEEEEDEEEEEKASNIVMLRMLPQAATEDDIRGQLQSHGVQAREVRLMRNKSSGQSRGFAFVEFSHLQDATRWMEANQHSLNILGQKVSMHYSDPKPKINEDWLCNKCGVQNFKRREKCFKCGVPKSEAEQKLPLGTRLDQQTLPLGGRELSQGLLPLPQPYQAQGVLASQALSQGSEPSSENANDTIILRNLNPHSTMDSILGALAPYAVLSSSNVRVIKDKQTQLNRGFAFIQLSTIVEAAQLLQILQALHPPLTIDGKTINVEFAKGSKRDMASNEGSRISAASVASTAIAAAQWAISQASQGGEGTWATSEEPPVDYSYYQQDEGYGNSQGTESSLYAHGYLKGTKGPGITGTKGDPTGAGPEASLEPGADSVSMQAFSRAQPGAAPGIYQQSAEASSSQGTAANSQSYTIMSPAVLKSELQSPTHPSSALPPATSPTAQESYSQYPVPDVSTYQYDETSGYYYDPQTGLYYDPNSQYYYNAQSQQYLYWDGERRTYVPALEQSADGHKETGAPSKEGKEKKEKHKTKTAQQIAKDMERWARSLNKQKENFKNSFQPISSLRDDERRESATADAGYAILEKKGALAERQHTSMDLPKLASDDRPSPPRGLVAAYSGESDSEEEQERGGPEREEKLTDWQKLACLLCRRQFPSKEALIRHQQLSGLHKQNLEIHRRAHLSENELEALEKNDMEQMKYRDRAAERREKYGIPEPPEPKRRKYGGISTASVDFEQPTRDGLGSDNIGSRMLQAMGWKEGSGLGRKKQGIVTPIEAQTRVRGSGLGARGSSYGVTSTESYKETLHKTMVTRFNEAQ

The target of assay [2] is T2, Serine and arginine rich splicing factor 2 (SRSF2) (human (endogenous in QBC939 and RBE)) (UniProt Q01130).
T2 sequence: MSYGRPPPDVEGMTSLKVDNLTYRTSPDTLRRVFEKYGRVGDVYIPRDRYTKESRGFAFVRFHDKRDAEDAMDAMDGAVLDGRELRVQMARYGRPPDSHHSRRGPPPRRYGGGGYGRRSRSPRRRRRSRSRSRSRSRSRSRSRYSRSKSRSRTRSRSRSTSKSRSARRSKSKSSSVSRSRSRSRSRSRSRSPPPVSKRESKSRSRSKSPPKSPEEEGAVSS
As to the kind of experiment: co-IP; lysates of QBC939 and RBE cells stably overexpressing RBM10^WT or RBM10^C761Y; antibody on Protein A + G magnetic beads, mixed with lysate at room temperature for 120 min; blot.

No constants are given. Whether binding was seen depends on the method and setting. In cells and extracts the contact can be indirect. Some entries that bind do so weakly or less than the wild type.

Take “Assembly factor for spindle microtubules (ASPM), isoform ASPM203 (from UniProt Q8IZT6 1-3477)”: the binding result in assay [1] is on record as “no binding”.
Turning to “RNA-binding protein 10 (RBM10), wild type (from UniProt P98175 1-930)”, in assay [2], the binding entry is “binds”.

For the origin of these results see publication PMC10993532.
